According to article PMC4309423, “Total synthesis of periploside A, a unique pregnane hexasaccharide with potent immunosuppressive effects” (Nature Communications, 2015):

system: ConA-induced T-lymphocyte proliferation (spleen cells from BALB/C mice); test: T cell function assay: ConA-induced T-lymphocyte proliferation ([3H]-thymidine uptake); type: cell-based; settings: IC50 against ConA-induced T-lymphocyte proliferation vs periploside A
Procedure: Supplementary Figure 63. Inhibition of concanavalin A (ConA)-induced
T-lymphocyte proliferation by synthetic compounds 1, 31, and 41-43.
Bioassay for the immunosuppressive activities17
Preparation of spleen cells from mice
BALB/C mice were sacrificed and spleens were removed aseptically. A single cell suspension was prepared after cell debris and clumps were removed. Erythrocytes were lysed using ammonium chloride buffer solution. The isolated lymphocytes were washed 3 times with PBS containing 2% FBS, and were re-suspended in RPMI 1640 medium at the indicated concentration. […]
1 x 10^6 of fresh spleen cells were cultured for 48 h at the same conditions as mentioned above. The cultures were stimulated with 5 µg/mL of concanavalin A (ConA) to induce T cells proliferative responses. The compounds were added to cultures with indicated concentrations to test their bioactivities. Proliferation was assessed in terms of uptake of [3H]-thymidine during last 8 h culture pulsing with 25 µCi of [3H]-thymidine for each well, and then cells were harvested onto glass fiber filters by a Basic 96 harvester. The incorporated radioactivity was counted by a liquid scintillation counter (1540 MicroBeta Trilux, Perkin–Elmer Life Sciences).

Q: With `CO[C@H]1[C@@H](O)[C@@H](C)O[C@@H](O[C@H]2[C@@H](OC)C[C@H](O[C@H]3[C@@H](OC)C[C@H](O[C@H]4[C@@H](OC)C[C@H](O[C@@H]5[C@@H](C)O[C@]6(C[C@H]5OC)OCO[C@@H]5C[C@H](O[C@@H](C)[C@@]7(O)CCC8C9CC=C%10C[C@@H](O)CC[C@]%10(C)C9CC[C@@]87C)O[C@H](C)[C@H]5O6)O[C@@H]4C)O[C@@H]3C)O[C@@H]2C)[C@@H]1OC(C)=O` (stereo partly drawn) [C1′′-epi-periploside A (31), C1′′-epi-periploside A] as the compound, how does the “fold less potent than the natural product” value read?
A: ~ 2.4 fold

same assay, conditions: selectivity index, CC50 vs IC50

Q: How did the SI turn out when `CO[C@H]1[C@@H](O)[C@@H](C)O[C@@H](O[C@H]2[C@@H](OC)C[C@H](O[C@H]3[C@@H](OC)C[C@H](O[C@H]4[C@@H](OC)C[C@H](O[C@@H]5[C@@H](C)O[C@]6(C[C@H]5OC)OCO[C@@H]5C[C@H](O[C@@H](C)[C@@]7(O)CCC8C9CC=C%10C[C@@H](O)CC[C@]%10(C)C9CC[C@@]87C)O[C@H](C)[C@H]5O6)O[C@@H]4C)O[C@@H]3C)O[C@@H]2C)[C@@H]1OC(C)=O` (stereo partly drawn) [C1′′-epi-periploside A (31), C1′′-epi-periploside A] was run?
A: 3.9

Q: `CO[C@H]1[C@@H](O)[C@@H](C)O[C@@H](O[C@H]2[C@@H](OC)C[C@H](O[C@H]3[C@@H](OC)C[C@H](O[C@H]4[C@@H](OC)C[C@@H](O[C@@H]5[C@@H](C)O[C@@]6(C[C@H]5OC)OCO[C@@H]5C[C@H](O[C@@H](C)[C@@]7(O)CCC8C9CC=C%10C[C@@H](O)CC[C@]%10(C)C9CC[C@@]87C)O[C@H](C)[C@H]5O6)O[C@@H]4C)O[C@@H]3C)O[C@@H]2C)[C@@H]1OC(C)=O` (stereo partly drawn) [C1′′′-epi-periploside A (41), C1′′′-epi-periploside A] was tested. Which SI did it give?
A: 5.8

Q: With `CO[C@@H]1C[C@]2(OCO[C@@H]3C[C@H](O[C@@H](C)[C@@]4(O)CCC5C6CC=C7C[C@@H](O)CC[C@]7(C)C6CC[C@@]54C)O[C@H](C)[C@H]3O2)O[C@H](C)[C@H]1O` (stereo partly drawn) [Disaccharide 42] as the compound, how does the SI read?
A: 2.1

Q: For `CO[C@@H]1C[C@]2(OCO[C@@H]3C[C@@H](O[C@@H](C)[C@@]4(O)CCC5C6CC=C7C[C@@H](O)CC[C@]7(C)C6CC[C@@]54C)O[C@H](C)[C@H]3O2)O[C@H](C)[C@H]1O` (stereo partly drawn) [Disaccharide 43], which SI is on record?
A: 7.5

Q: For `COC1CC(OC2C(C)OC3(CC2OC)OCOC2CC(OC(C)C4(O)CCC5C6CC=C7CC(O)CCC7(C)C6CCC54C)OC(C)C2O3)OC(C)C1OC1CC(OC)C(OC2CC(OC)C(OC3OC(C)C(O)C(OC)C3OC(C)=O)C(C)O2)C(C)O1` (stereo not drawn) [Periploside A (1), Periploside A], which SI is on record?
A: 12
